Results published in US20180215829A1.
These are yes or no findings as the source states them, for the method shown. Some binding calls cover weakened binding; strength is not graded here. Tags and fused reporters may be left off the sequences shown.

Target: T1, recombinant human IL-17RA Fc fusion protein (R&D Systems 177-IR-100) (human) (UniProt Q96F46)
T1 sequence: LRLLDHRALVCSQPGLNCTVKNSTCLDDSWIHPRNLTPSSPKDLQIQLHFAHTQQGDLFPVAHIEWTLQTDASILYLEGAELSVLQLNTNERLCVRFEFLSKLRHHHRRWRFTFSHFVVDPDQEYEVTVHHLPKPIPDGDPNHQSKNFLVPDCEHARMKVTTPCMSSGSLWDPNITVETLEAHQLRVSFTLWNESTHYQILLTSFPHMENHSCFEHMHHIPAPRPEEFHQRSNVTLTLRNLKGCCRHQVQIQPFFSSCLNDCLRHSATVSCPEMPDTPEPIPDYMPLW
Experiment: specificity ELISA (FIG. 14)

binding: binds
B1: VH 62A4 (VHH)
VHH: QVQLVESGGGLVQPGRSLTLSCTASGFTFHDYAMHWVRQPPGGGLEWVAGVSWNGNNVGYADSVKGRFTISRDNAKKSLYLQMNSLRSEDTALYYCAKGGMGSGSHPDSFSTWGQGTMVTVSS
